Experimental data reported in patent publication US8865750B2, “Small molecule inhibitors of RGS proteins” (The Regents of The University of Michigan, priority 2011, dated 2014).
At least one compound was matched to its structure with a doubt left.

Amino acid sequences for entries named in this document (tags omitted). Chains listed by the source or under a name are the forms on record and can include a tag or linker. Residues count along the entry.
UniProt P57771, other isoform, or with tags, fused parts or gaps: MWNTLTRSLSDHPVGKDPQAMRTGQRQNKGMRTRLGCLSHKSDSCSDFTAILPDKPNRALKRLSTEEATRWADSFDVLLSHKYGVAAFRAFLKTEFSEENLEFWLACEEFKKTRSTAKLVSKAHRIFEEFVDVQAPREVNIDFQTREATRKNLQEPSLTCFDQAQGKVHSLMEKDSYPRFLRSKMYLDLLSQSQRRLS
UniProt P57771, other isoform, or with tags, fused parts or gaps C160S: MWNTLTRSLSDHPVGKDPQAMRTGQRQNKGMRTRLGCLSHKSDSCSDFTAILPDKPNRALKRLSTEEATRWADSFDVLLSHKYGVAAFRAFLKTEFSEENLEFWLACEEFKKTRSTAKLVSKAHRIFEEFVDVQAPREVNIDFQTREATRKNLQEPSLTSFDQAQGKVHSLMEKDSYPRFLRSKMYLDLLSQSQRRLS
UniProt P57771, other isoform, or with tags, fused parts or gaps C107S: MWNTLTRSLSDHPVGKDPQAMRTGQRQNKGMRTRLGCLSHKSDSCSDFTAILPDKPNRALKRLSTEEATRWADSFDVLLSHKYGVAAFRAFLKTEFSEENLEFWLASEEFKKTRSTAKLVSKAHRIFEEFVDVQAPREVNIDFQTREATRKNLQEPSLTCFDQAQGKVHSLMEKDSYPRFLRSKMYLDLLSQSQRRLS
UniProt P09471, whole entry: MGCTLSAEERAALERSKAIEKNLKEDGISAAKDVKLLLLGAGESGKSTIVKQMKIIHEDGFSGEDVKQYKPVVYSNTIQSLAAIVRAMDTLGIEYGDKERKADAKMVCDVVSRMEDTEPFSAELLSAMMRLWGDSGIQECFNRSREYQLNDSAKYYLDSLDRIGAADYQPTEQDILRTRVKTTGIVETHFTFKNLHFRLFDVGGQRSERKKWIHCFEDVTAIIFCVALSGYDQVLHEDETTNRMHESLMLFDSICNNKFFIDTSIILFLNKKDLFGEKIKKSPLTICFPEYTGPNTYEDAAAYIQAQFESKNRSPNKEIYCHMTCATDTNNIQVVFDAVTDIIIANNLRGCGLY
UniProt P49798, 52-205, species assumed: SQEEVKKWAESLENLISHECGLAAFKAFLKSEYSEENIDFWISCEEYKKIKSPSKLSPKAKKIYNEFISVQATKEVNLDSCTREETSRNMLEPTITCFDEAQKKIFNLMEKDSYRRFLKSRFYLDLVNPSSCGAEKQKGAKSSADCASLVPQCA
UniProt P49795, whole entry, species assumed: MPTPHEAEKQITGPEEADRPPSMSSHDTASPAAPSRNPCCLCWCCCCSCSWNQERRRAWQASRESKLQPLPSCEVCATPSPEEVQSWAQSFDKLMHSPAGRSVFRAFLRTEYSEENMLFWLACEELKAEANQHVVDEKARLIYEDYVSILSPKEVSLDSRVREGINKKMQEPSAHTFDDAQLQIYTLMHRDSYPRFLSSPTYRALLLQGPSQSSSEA

What was measured:
RGS8 [1] = biological target: T1, RGS8 (Homo sapiens (Human), UniProt P57771); experiment: Gel filtration after compound treatment and Gαo competition; type: binding; conditions: 5-fold excess compound
Gα0 [2] = biological target: T2, Gα0 (Homo sapiens (Human), UniProt P09471); experiment: ThermoFluor thermal stability, Gαo; type: binding
107C RGS8 (C160S) = 107C RGS8 (C160S) (Homo sapiens (Human), UniProt P57771, C160S); experiment: FCPIA: RGS8 mutant 107C; type: binding
Procedure: (§1) With the exception of RGS8 mutants, all RGS and G proteins were prepared as previously described (Roman, D., et al., Mol Pharmacol). […] Mutagenesis was performed using the QuickChange Multi-site Directed Mutagenesis kit (Agilent, La Jolla Calif.).
(§2) This protein only contains two cysteines in the RGS homology domain, making it a simpler model system to study than other RGS proteins. Each cysteine from the RGS8 RGS homology (RH) domain was individually mutated to serine and the activity of the compound was analyzed via FCPIA (FIG. 6).

μ-opioid receptor = experiment: cAMP accumulation in SH-SY5Y cells, morphine; type: cell-based; conditions: 100 μM
RGS4 = RGS4 (Homo sapiens (Human), UniProt P49798); experiment: Single turnover GTPase (GAP) assay, RGS4; type: biochemical
Procedure: (§3) Single Turnover GTPase Measurements:
(§4) Compounds were tested for the ability to inhibit the RGS4 and RGS8-stimulated increase in GTP hydrolysis by Gα0 as described previously (Roman, D. L., et al., Mol Pharmacol, 2007. 71(1): p. 169-75; Roof, R. A., et al., Chem Biol Drug Des, 2006. 67(4): p. 266-74).
Compounds were tested for the ability to inhibit the RGS4 and RGS8-stimulated increase in GTP hydrolysis by Gα0 as previously described (Roman, D. L., et al., Mol Pharmacol, 2007. 71(1): p. 169-75; Roof, R. A., et al., Chem Biol Drug Des, 2006. 67(4): p. 266-74).
(§5) Single-turnover GAP assay: Experiments were performed as previously described using purified his6-tagged Gαo (Blazer et al., Biochemistry 50, 3181-3192; Roof et al., (2008) Chem Biol Drug Des 72, 111-119).

RGS4/Gα0 interaction = RGS4/Gα0 interaction (Homo sapiens (Human), UniProt P49798); experiment: RGS4-GFP membrane translocation (confocal microscopy, HEK-293T); type: cell-based
Procedure: Cellular Localization Studies:
(§6) HEK-293T cells grown to 80-90% confluency in 6-well dishes in DMEM supplemented with 10% fetal bovine serum and Penicillin (100 units/ml)-Streptomycin (100 μg/ml) under 5% CO2 at 37° C. RGS and Gα0 expression was induced by transient co-transfection with either 250 ng of full-length human RGS4 with an N-terminal GFP tag (RGS4pEGFP-C1) or a C-terminal RGS4-GFP (RGS4pDEST47) and 250 ng of pcDNA3.1 or pcDNA with wildtype human Gα0. Cells were split onto poly-D-lysine coated glass coverslips and cultured for 24-48 hours after transfection before live cell imaging. Images were acquired on an Olympus Fluoview 500 confocal microscope with a 60×1.40 numerical aperture (N.A) oil objective. Images were obtained by taking a series of stacks every 0.5 μm through the cell and combining the images into a composite stack. The light source for the fluorescent studies was a 488 nm laser with a 505-525 nm bandpass filter. Images were quantified using NIH ImageJ software version 1.43r.
as §6, with “Confocal Microscopy: HEK-293T” for “HEK-293T”, “Go” for “Gα0”, “Gαo.” for “Gα0.”

RGS8 [3] = biological target: T1, RGS8; experiment: FCPIA: Gαo binding to RGS8
Text: (§7) FCPIA Dose Response and Reversibility Experiments:

RGS8 [4] = biological target: T1, RGS8; experiment: ESI-LC/MS protein adduct analysis
RGS8 [5] = biological target: T1, RGS8; experiment: Single turnover GTPase (GAP) assay, RGS8; type: biochemical
M3 muscarinic receptor = experiment: Carbachol-induced Ca2+ response, M3 cells without RGS4 dependence; type: cell-based; conditions: 10 μM (FIG. 20) or as stated
Procedure: (§8) Calcium Mobilization Experiments:
A stable cell line was developed based upon the HEK-293 Flp-In TREx cell line (Invitrogen, Carlsbad, Calif.) that stably express the muscarinic M3 receptor and have human RGS4 expression under doxycycline control. Cells were maintained in DMEM supplemented with 10% fetal bovine serum and Penicillin (100 units/ml)-Streptomycin (100 μg/ml) under 5% CO2 at 37° C. For experiments, cells were split into 96-well black, clear bottom, poly-D-lysine coated microtiter plates (Nunc, Cat. #152037) at a density of 20,000 cells/well in DMEM containing 10% fetal bovine serum and Penicillin (100 units/ml), Streptomycin (100 μg/ml). […] Compounds and/or carbachol were added to the wells and the fluorescence intensity was measured using a FlexStation (Molecular Devices, Sunnyvale, Calif.) plate reader. Data analysis was performed by calculating the area under the curve or maximal fluorescence intensity from a 120 second kinetic measurement.
Calcium signaling transients: A stable cell line was developed based upon the HEK-293 Flp-In TREx cell line (Invitrogen, Carlsbad, Calif.) that stably express the muscarinic M3 receptor and have human RGS4 expression under doxycycline control. […] Compounds and/or carbachol were added to the wells and the fluorescence intensity was measured using a FlexStation (Molecular Devices, Sunnyvale, Calif.) plate reader. […]

160C RGS8 (C107S) = 160C RGS8 (C107S) (Homo sapiens (Human), UniProt P57771, C107S); experiment: FCPIA: RGS8 mutant 160C; type: binding
Procedure: as §1, §2

HEK293 cells = experiment: Calcium mobilization induced by compound alone; type: cell-based; conditions: 10 μM
Procedure: as §8
A stable cell line was developed based upon the HEK-293 Flp-In TREx cell line (Invitrogen, Carlsbad, Calif.) that stably express the muscarinic M3 receptor and have human RGS4 expression under doxycycline control. Cells were maintained in DMEM supplemented with 10% fetal bovine serum and Penicillin (100 units/ml)-Streptomycin (100 μg/ml) under 5% CO2 at 37° C. For experiments, cells were split into 96-well black, clear bottom, poly-D-lysine coated microtiter plates (Nunc, Cat. #152037) at a density of 20,000 cells/well in DMEM containing 10% fetal bovine serum and Penicillin (100 units/ml), Streptomycin (100 μg/ml). RGS4 expression was induced by supplementing the medium with 1 μg/mL doxycycline for 24-48 hours before experimentation. Cells were loaded with Fluo-4 No Wash dye in buffer for 30 minutes at 37° C. Compounds and/or carbachol were added to the wells and the fluorescence intensity was measured using a FlexStation (Molecular Devices, Sunnyvale, Calif.) plate reader. Data analysis was performed by calculating the area under the curve or maximal fluorescence intensity from a 120 second kinetic measurement.

Gα0 [6] = biological target: T2, Gα0; experiment: Intrinsic GTP hydrolysis by Gαo (single turnover); type: biochemical; conditions: 100 μM compound
Procedure: as §3, §4, §5

RGS19 = RGS19 (Homo sapiens (Human), UniProt P49795); experiment: FCPIA: Gαo binding to RGS19; conditions: Table 1
Procedure: as §7
FCPIA was performed as previously described using chemically biotinylated RGS proteins and AlexaFluor-532 labeled Gα0. (Roman et al., J Biomol Screen, 2009; Blazer, L. L., et al., Mol Pharmacol).
RGS/Gα binding studies: The binding of biotinylated RGS proteins to fluorescently labeled Gαo was measured by Flow Cytometry Protein Interaction Assay (FCPIA) method previously described (Roman et al., (2009) J Biomol Screen.; Blazer et al., (2010) Curr Protoc Cytom Chapter 13, Unit 13 11 11-15; Roman et al., (2007) Mol Pharmacol 71, 169-175) as were the measures of compound reversibility.

RGS8 [7] = biological target: T1, RGS8; experiment: ThermoFluor thermal stability, RGS8; type: binding

Cc1ccc(-n2sc(=O)n(Cc3ccc(F)cc3)c2=O)cc1 [CCG-50014, 4-[(4-fluorophenyl)methyl]-2-(4-methylphenyl)-1,2,4-thiadiazolidine-3,5-dione]
decrease in wild-type RGS8 activity after treatment (RGS8 [1]): 14 fold
thermal stability of Gα0 (Gα0 [2]): no effect on the thermal stability
reversibility of effect on 107C RGS8 (107C RGS8 (C160S); 20 μM): partially reversed
Hill Coefficient, 107C RGS8 (107C RGS8 (C160S); FIG. 6): −0.54
effect upon μ-receptor signaling (μ-opioid receptor): only a modest effect
inhibition of GAP activity of RGS4 (RGS4): dose-dependently inhibited the GAP activity
lowest concentration at which translocation reversal was observed (RGS4/Gα0 interaction): 1 µM
time to translocation reversal (RGS4/Gα0 interaction; 10 μM): ≤ 10 min
time to translocation reversal (RGS4/Gα0 interaction; 100 μM): < 1 min
reversal of Gα0-induced RGS4 membrane translocation (RGS4/Gα0 interaction; HEK-293T, 100 μM where stated): able to reverse the Gα0-induced RGS membrane translocation
reversibility of RGS8 inhibition after washing (RGS8 [3]; 100 μM, beads washed): irreversibly bound
reversal of RGS8 inhibition by DTT wash (RGS8 [3]; 1 mM DTT): partially reversed
Hill Coefficient, wild-type RGS8 (RGS8 [3]; FIG. 6): −0.79
Hill Slope, RGS8 (RGS8 [3]; Table 1): −0.57
covalent adduct formation on RGS8 (RGS8 [4]): forms a covalent adduct
inhibition of GAP activity of RGS8 (RGS8 [5]): dose-dependently inhibited the GAP activity
effect on carbachol-induced Ca2+ response (RGS-independent) (M3 muscarinic receptor): completely inhibited
effect on carbachol-induced Ca2+ response (RGS-independent) (M3 muscarinic receptor; listed as 1a): nearly completely abolished
reversibility of effect on 160C RGS8 (160C RGS8 (C107S); 20 μM): completely irreversible
Hill Coefficient, 160C RGS8 (160C RGS8 (C107S); FIG. 6): −0.36
induction of calcium transient by compound alone (HEK293 cells): induces a calcium transient
intrinsic rate of GTP hydrolysis by Gα0 (Gα0 [6]): not significantly different
Hill Slope, RGS19 (RGS19): −0.61
thermal stability of RGS8 (RGS8 [7]): thermally destabilizes RGS8 in a dose-dependent manner
